For at least one compound, name, drawing or mass did not settle the structure.
System: Sprague-Dawley rats with spinal cord contusion injury
Assay: Locomotor recovery in rats after spinal cord contusion injury (Basso-Beattie-Bresnahan rating scale)
Format: in vivo, rat
Settings: single dose injection one hour after injury; 30 μg/kg proteins, 30 mg/kg Methylprednisolone; observed up to six weeks

In the case of `C[C@H]1C[C@@H]2[C@H]([C@@H](O)C[C@@]3(C)[C@H]2CC[C@]3(O)C(=O)CO)[C@@]2(C)C=CC(=O)C=C12` [methylprednisolone], the “locomotor recovery as compared to the control groups (groups 1 and 2)” value was “hardly show any difference to the control animals”.

— patent publication US9085640B2, “Carbamoylated EPO-Fc fusion proteins” (POLYMUN SCIENTIFIC IMMUNBIOLOGISCHE FORSCHUNG GMBH, priority 2007, dated 2015)
